We go through 21 compounds from paper PMC12040169 (PLOS Biology, 2025).

Structures are written as SMILES. The list shows a part of the results.

The assay concerns T1, CTL2-GFP (C. trachomatis L2/434/Bu, GFP-expressing).
T1 construct: L2/434/Bu, GFP-expressing
Details: species or system HeLa; Intracellular C. trachomatis growth in HeLa cells, bulk GFP fluorescence relative to DMSO. To be noted: bulk GFP, single well; 28.5 h, 10 µM; inhibitor.
For the compound `N#Cc1nc(-c2ccccc2)oc1NCCN1CCCCC1` [CBK264573], the “% of control remaining” value turned out to be 115.166%.

As for `Cc1ccc(C(=O)N2CCN(S(=O)(=O)c3sc(C(=O)O)c(C)c3C(=O)O)CC2)s1` [CBK297150], the “% of control remaining” value is given as 140.345%. `O=C1CC(c2ccccc2)=NN1c1nc(-c2ccccc2)cc(-c2ccc(F)cc2)n1` [CBK261717]: the “% of control remaining” value worked out at 116.748%. For the compound `CCN(CCO)c1ccc(Nc2nc(-c3c(OC)cccc3OC)cn3ccnc23)cc1` [CBK066267], the “% of control remaining” value is given as 134.316%.

Regarding `COc1cc(CC(=O)Nc2cccc(-c3ccc(OC4CCNCC4)cc3)n2)cc(OC)c1OC` [CBK138351], the “% of control remaining” value is reported as 120.067%. For `CCOC(=O)C(Cc1ccccc1)NC(=O)c1cn[nH]c1C` (stereo not drawn) [CBK305499], the “% of control remaining” value came out at 124.295%. For the compound `N#CCCCN1CCC(Oc2nccnc2OCc2cccc(C(F)(F)F)c2F)CC1` [CBK153646], the “% of control remaining” value is given as 125.216%. For the compound `CC(NC(=O)CCN1CCN(C)CC1)c1cc2cc(Cl)ccc2o1` (stereo not drawn) [CBK281601], the “% of control remaining” value stood at 97.6584%. Take `Cc1ccc(C(=O)O)cc1NC(=O)c1ncn(-c2ccccc2)n1` [CBK269181]: the “% of control remaining” value stood at 130.842%. In the case of `N#Cc1c(NC(=O)c2cc(S(=O)(=O)N3CCCCC3)c(Cl)cc2Cl)sc2c1CCCC2` [CBK264579] it was 114.304%; in that of `O=C(Nc1nc2ccc(Cl)cc2s1)c1nc(SCc2ccccc2)ncc1Cl` [CBK268825], 142.487%; in that of `O=C(O)CCCC(=O)Nc1ccc(C(=O)O)cc1` [CBK261534], 100.635%. Regarding `CNC(=O)Nc1ccc(C(C)(C)C)cc1Br` [CBK086434], the “% of control remaining” value is recorded as 104.372%. In the case of `Cc1nn(CCC#N)c(C)c1[C@@H]1C=C[C@@H](NC(=O)NCc2ccccc2)C1` [CBK289174] it was 117.421%; in that of `COCC(=O)NC1CCN(CC2(c3cccc(F)c3)CCCC2)CC1` [CBK282546], 86.2472%. In the case of `CC(CN1CCCCC1)NC(=O)c1cc(-c2ccncc2)nc2ccc(Br)cc12` (stereo not drawn) [CBK267756] it was 113.717%; in that of `CCNC(=O)NC[C@H]1C[C@@H]2CCN1C[C@@H]2c1cc(-c2ccc(F)cc2)nn1C` [CBK289110], 120.749%.

On to `Cc1noc(C)c1NC(=O)c1cnc2ccccc2n1` [CBK200220], for which the “% of control remaining” value is listed as 95.7186%. Regarding `COc1cccc(NC(=O)N(CCCO)C2CCc3ccccc32)c1` (stereo not drawn) [CBK305397], the “% of control remaining” value is on record as 111.903%. The value for `COc1ccc([C@@]23CC[C@@H](NC(=O)Nc4ccc(OC)c(C(F)(F)F)c4)C[C@@H]2N(C)CC3)cc1OC` [CBK051268T] was 66.1024%; that for `NC(=O)C1(N2CCCCC2)CCN(C(=S)Nc2ccc(Oc3ccccc3)cc2)CC1` [CBK265862] was 219.023%.
